Measurements published in publication PMC7793531 (International Journal of Molecular Sciences, 2020).
Strings that start with PEPTIDE1 are HELM notation: dots part the residues, brackets hold end groups and non-standard residues. Starred links: 1 amine or outer side, 2 acyl side, 3 side chain; linkers in the order of their positions; H or OH if unused. Non-standard residues stand in square brackets, D forms with d. Groups on a side chain read outwards from the residue. ξ: configuration not given here. *: point of attachment. Oic(3aξ,7aξ) = O=C(O)[C@@H]1CC2CCCCC2N1; X1 = N=C(N)NCCCC[C@H](N)CN*; X3 = N=C(N)NCCC[C@H](N)CN*; X2 = N=C(N)NCC[C@H](N)CN*; Orn = NCCC[C@H](N)C(=O)O; Dab = NCC[C@H](N)C(=O)O; CO = O=C([*:1])[*:2]

Experiment: general procedure: Fmoc solid-phase peptide synthesis; Fmoc-Arg(Pbf) Wang resin, 0.32 mmol/g; HCTU/DIPEA
Conditions: whole synthesis, scale of the general procedure 0.3 g resin, TFA

Substance	isolated yield
H-K([CO-X2])[Dab][Oic(3aξ,7aξ)]R-OH	65%
H-[Dab]([CO-X1])[Dab][Oic(3aξ,7aξ)]R-OH (SMILES N=C(N)NCCCC[C@H](N)CNC(=O)NCC[C@H](N)C(=O)N[C@@H](CCN)C(=O)N1C2CCCCC2C[C@H]1C(=O)N[C@@H](CCCNC(=N)N)C(=O)O)	59%
H-[Orn]([CO-X3])[Dab][Oic(3aξ,7aξ)]R-OH	55%
PEPTIDE1{[DabU].[Dab].[Oic].R}|PEPTIDE2{[gDabU]}$PEPTIDE1,PEPTIDE2,1:R3-1:R2$$$V2.0	63%
PEPTIDE1{[DabU].[Dab].[Oic].R}|PEPTIDE2{[hArg]}$PEPTIDE1,PEPTIDE2,1:R3-1:R2$$$V2.0	59%
PEPTIDE1{[DapU].[Dab].[Oic].R}|PEPTIDE2{[ArgU]}$PEPTIDE1,PEPTIDE2,1:R3-1:R2$$$V2.0	55%
PEPTIDE1{[LysU].[Dab].[Oic].R}|PEPTIDE2{[gDab]}$PEPTIDE1,PEPTIDE2,1:R3-1:R2$$$V2.0	51%
PEPTIDE1{[OrnU].[Dab].[Oic].R}|PEPTIDE2{R}$PEPTIDE1,PEPTIDE2,1:R3-1:R2$$$V2.0	63%
PEPTIDE1{[OrnU].[Dab].[Oic].R}|PEPTIDE2{[gDapU]}$PEPTIDE1,PEPTIDE2,1:R3-1:R2$$$V2.0	51%
